PubChem BioAssay AID1259327 – Drosophila RNAi Screening Center – 2017
Screen: 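Knock-downs altering cellular ATP with no metal added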. Cells: Drosophila S2R+ cells. Reagent: long dsRNA against Drosophila genes. Timing: 5 days (water added on day 4, read one day later). Conditions: water added as vehicle, no metal, one day before read-out. Measurement: 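Total ATP measured by luciferase light, scaled to plate mean, duplicates averaged, then z-scored across plates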. Scale: ATP z-score: higher = more total ATP than typical wells; ATP luminescence: higher = more total ATP. Active means: 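a hit is any knock-down whose absolute ATP z-score is greater than 1.5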. Calls: active = hit: ATP up or down; inactive = no clear ATP change.
This is an unselected part of about 3,100 deposited reagents. 378 of them (12%) count as active. 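Hits include both directions; z-score sign shows ATP rise or fall; raw luminescence values are not plate-normalised.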 Unmarked entries are inactive. Reagent sequences are not shown. The record does not give: the amount of reagent.

For ste24a [DRSC07314] the deposit lists ATP z-score, duplicate mean 0.382; ATP luminescence, replicate 1 (RLU) = 7.30e5; ATP luminescence, replicate 2 (RLU) = 8.15e5.
Depletion of ste24a [DRSC26491] resulted in: ATP z-score, duplicate mean 0.913; ATP luminescence, replicate 1 (RLU) = 7.49e5; ATP luminescence, replicate 2 (RLU) = 1.07e6.
Silencing of CG9444 [DRSC16493] resulted in: ATP z-score, duplicate mean 1.33; ATP luminescence, replicate 1 (RLU) = 4.04e5; ATP luminescence, replicate 2 (RLU) = 7.92e5.
Against CG4743 [DRSC15636], the entry reads ATP z-score, duplicate mean 0.78; ATP luminescence, replicate 1 (RLU) = 3.48e5; ATP luminescence, replicate 2 (RLU) = 8.10e5.
For CG6659 [DRSC20003] the deposit lists ATP z-score, duplicate mean 0.0655; ATP luminescence, replicate 1 (RLU) = 7.29e5; ATP luminescence, replicate 2 (RLU) = 6.96e5.
Against CG6659 [DRSC39777], the entry reads ATP z-score, duplicate mean -0.306; ATP luminescence, replicate 1 (RLU) = 4.37e5; ATP luminescence, replicate 2 (RLU) = 4.79e5.
Against santa-maria [DRSC00994], the entry reads ATP z-score, duplicate mean -0.0311; ATP luminescence, replicate 1 (RLU) = 6.13e5; ATP luminescence, replicate 2 (RLU) = 8.73e5.
Silencing of santa-maria [DRSC02180] resulted in: ATP z-score, duplicate mean 0.412; ATP luminescence, replicate 1 (RLU) = 4.43e5; ATP luminescence, replicate 2 (RLU) = 5.77e5.

3 of these entries, set out differently:
{"Target gene":"ste24a","amplicon":"DRSC07314","ATP z-score, duplicate mean":0.382,"ATP luminescence, replicate 1 (RLU)":7.30e5,"ATP luminescence, replicate 2 (RLU)":8.15e5}
{"Target gene":"ste24a","amplicon":"DRSC26491","ATP z-score, duplicate mean":0.913,"ATP luminescence, replicate 1 (RLU)":7.49e5,"ATP luminescence, replicate 2 (RLU)":1.07e6}
{"Target gene":"CG9444","amplicon":"DRSC16493","ATP z-score, duplicate mean":1.33,"ATP luminescence, replicate 1 (RLU)":4.04e5,"ATP luminescence, replicate 2 (RLU)":7.92e5}

The listing continues:
Against Cad86C [DRSC15611], the entry reads ATP z-score, duplicate mean 0.284; ATP luminescence, replicate 1 (RLU) = 2.96e5; ATP luminescence, replicate 2 (RLU) = 8.32e5.
For Cad86C [DRSC27602], the values are ATP z-score, duplicate mean 1.01; ATP luminescence, replicate 1 (RLU) = 1.10e6; ATP luminescence, replicate 2 (RLU) = 1.04e6.
Silencing of Cad86C [DRSC28094] gave: ATP z-score, duplicate mean 0.699; ATP luminescence, replicate 1 (RLU) = 9.56e5; ATP luminescence, replicate 2 (RLU) = 1.00e6.
Drip [DRSC07405] showed ATP z-score, duplicate mean -1.57 (active); ATP luminescence, replicate 1 (RLU) = 4.96e5; ATP luminescence, replicate 2 (RLU) = 4.60e5.
After knock-down of CG17167 [DRSC20902] the results were ATP z-score, duplicate mean 0.339; ATP luminescence, replicate 1 (RLU) = 8.09e5; ATP luminescence, replicate 2 (RLU) = 7.47e5.
CG17167 [DRSC20903] showed ATP z-score, duplicate mean -0.774; ATP luminescence, replicate 1 (RLU) = 6.83e5; ATP luminescence, replicate 2 (RLU) = 6.33e5.
With knock-down of robo1 [DRSC04712] the results were ATP z-score, duplicate mean -0.267; ATP luminescence, replicate 1 (RLU) = 7.07e5; ATP luminescence, replicate 2 (RLU) = 6.89e5.
After knock-down of brv1 [DRSC11076] the results were ATP z-score, duplicate mean 1.23; ATP luminescence, replicate 1 (RLU) = 1.14e6; ATP luminescence, replicate 2 (RLU) = 9.81e5.
